From patent publication US10377647B2, “Systems and methods for use of water with switchable ionic strength” (Queen's University at Kingson, priority 2010, dated 2019)

How the values were obtained:
[1] = Comparative: primary and secondary amine/water switching; type: physicochemical; settings: for time of CO2 bubbling until solution separated into two phases / phase recombination on bubbling N2: 3:3:1 v/v/v H2O:amine:THF; for phase recombination on bubbling N2: N2 90 minutes at 50° C.
[2] = Ceiling salting out limits with inorganic salts
[3] = Chemical force spectrometry, tip/sample adhesion; settings: Mica
[4] = Chemical force spectrometry, tip/sample adhesion; settings: Silica
[5] = Salting out THF with diamidine; settings: 0.80 molal, 1:1 w/w THF:water, 30 min CO2
[6] = THF separated and additive retained by 1H NMR, 0.80 molal additive; type: physicochemical; settings: 1:1 w/w THF:H2O, 30 min CO2
[7] = THF separated and additive retained by 1H NMR at different additive loadings; type: physicochemical
[8] = Salting out THF with methylated spermine
[9] = Expulsion of THF from water and recovery of water-immiscible additive; settings: for additive removed from the aqueous phase after N2 treatment: separated aqueous phase, N2 90 minutes at 60° C.
[10] = Salting out THF with secondary amine additives; settings: for Additive retained in H2O / THF forced out: 1.60 molal, 1:1 w/w THF:water, 30 min CO2; for time of argon bubbling until the two phases recombined: 50° C.
[11] = Removal of water from THF with TMDAB and CO2; settings: 30 min CO2
[12] = Reversible destabilization of a clay-in-water suspension (settling)
[13] = Hydroformylation of styrene in the presence of switchable water additive; settings: 0.8 molal TMDAB, no phosphine added during recycling
[14] = Primary amines as additives: salting out THF; settings: for phase recombination on bubbling N2: 60° C. water bath, 60 minutes
[15] = Carboxylic Acid-terminated tip, 1 mM additive (pH 11 ± 0.2)
[16] = Carboxylic Acid-terminated tip, 1 mM additive + CO2 (pH 5 ± 0.2)
[17] = Phenyl-terminated tip, 1 mM additive (pH 11 ± 0.2)
[18] = Phenyl-terminated tip, 1 mM additive + CO2 (pH 5 ± 0.2)
[19] = run 1, 0.80 molal, 1:1 w/w THF:water, 30 min CO2
[20] = run 2 (after Ar at 50° C. and repeated CO2)
[21] = 1.50 g H2O, 1.50 g THF, 0.30 g additive, CO2 45 minutes

SMILES: CNCCO [2-(methylamino)ethanol, 2-(methylamino) ethanol]
- time of CO2 bubbling until solution separated into two phases [1]: 10 min
- phase recombination on bubbling N2 [1]: did not recombine into one miscible layer

SMILES: N.N.O=S(=O)(O)O [(NH4)2SO4]
- % Organic Salted Out ([2]; Solvent MeCN, about 2 g solvent + 2 g water, salt to constant volume): 99 ± 0.1%
- % Organic Salted Out ([2]; Solvent THF, about 2 g solvent + 2 g water, salt to constant volume): 99 ± 0.6%

SMILES: CCCCN=C(C)N(C)C [Additive C4]
- Adhesion Force [3, 15]: 0.01 ± 0.01 nN
- Adhesion Force [3, 16]: 1.58 ± 0.18 nN
- Adhesion Force [3, 17]: 0.01 ± 0.01 nN
- Adhesion Force [3, 18]: 0.74 ± 0.35 nN
- Adhesion Force [4, 15]: 0 nN
- Adhesion Force [4, 16]: 0.18 ± 0.04 nN
- Adhesion Force [4, 17]: 0 nN
- Adhesion Force [4, 18]: 0.07 ± 0.02 nN

SMILES: CCCCCCCCN=C(C)N(C)C [Additive C8]
- Adhesion Force [3, 15]: 0.23 ± 0.28 nN
- Adhesion Force [3, 16]: 1.94 ± 0.23 nN
- Adhesion Force [3, 17]: 1.97 ± 0.19 nN
- Adhesion Force [3, 18]: 0.41 ± 0.20 nN
- Adhesion Force [4, 15]: 0.39 ± 0.20 nN
- Adhesion Force [4, 16]: 1.53 ± 0.19 nN
- Adhesion Force [4, 17]: 0.97 ± 0.33 nN
- Adhesion Force [4, 18]: 1.05 ± 0.38 nN

SMILES: C/C(=N\CCCC/N=C(\C)N(C)C)N(C)C [DIAC, N′,N″-(butane-1,4-diyl)bis(N,N-dimethylacetimidamide)]
- THF forced out of the aqueous phase [5]: 54.5%
- additive retained in the aqueous phase [5]: 99.5%

SMILES: CC(O)CN(CCCN(C)C)CCCN(C)C (centres unmarked) [DMAPAP]
- % Additive Retained [6]: 98.8 ± 0.4%
- % THF Separated [6]: 79 ± 1.2%
- % Additive Retained ([7]; THF:H2O:Additive 3:3:1 w/w/w): 87.1 ± 7.3%
- % THF Separated ([7]; THF:H2O:Additive 3:3:1 w/w/w): 78 ± 6.1%
- % Additive Retained ([7]; THF:H2O:Additive 5:5:1 w/w/w): 98.4 ± 0.4%
- % THF Separated ([7]; THF:H2O:Additive 5:5:1 w/w/w): 81 ± 1.0%
- % Additive Retained ([7]; THF:H2O:Additive 10:10:1 w/w/w): 96.0 ± 0.8%
- % THF Separated ([7]; THF:H2O:Additive 10:10:1 w/w/w): 69 ± 1.4%
- % Additive Retained ([7]; THF:H2O:Additive 15:15:1 w/w/w): 94.4 ± 1.1%
- % THF Separated ([7]; THF:H2O:Additive 15:15:1 w/w/w): 62 ± 1.1%

SMILES: CN(C)CCN(C)CCN(C)CCN(C)C [HMTETA, 1,1,4,7,10,10-hexamethyl triethylenetetramine]
- % Additive Retained [6]: 99.3 ± 0.4%
- % THF Separated [6]: 78 ± 0.9%
- % Additive Retained ([7]; THF:H2O:Additive 3:3:1 w/w/w): 95.6 ± 1.5%
- % THF Separated ([7]; THF:H2O:Additive 3:3:1 w/w/w): 80 ± 4.0%
- % Additive Retained ([7]; THF:H2O:Additive 5:5:1 w/w/w): 98.4 ± 1.2%
- % THF Separated ([7]; THF:H2O:Additive 5:5:1 w/w/w): 80 ± 3.0%
- % Additive Retained ([7]; THF:H2O:Additive 10:10:1 w/w/w): 98.0 ± 1.0%
- % THF Separated ([7]; THF:H2O:Additive 10:10:1 w/w/w): 70 ± 1.3%
- % Additive Retained ([7]; THF:H2O:Additive 15:15:1 w/w/w): 98.2 ± 0.3%
- % THF Separated ([7]; THF:H2O:Additive 15:15:1 w/w/w): 65 ± 4.9%

SMILES: CN(C)CCCN(C)CCCCN(C)CCCN(C)C [MeSpe, N^1,N^1′-(butane-1,4-diyl)bis(N^1,N^3,N^3-trimethylpropane-1,3-diamine)]
- Additive retained in THF [8, 19]: 99.85%
- THF forced out [8, 19]: 84.3%
- Additive retained in THF [8, 20]: 99.79%
- THF forced out [8, 20]: 85.5%

SMILES: CCCN(CC)CCCCN(CC)CCC [N,N′-diethyl-N,N′-dipropyl-1,4-diaminobutane]
- THF removed from the aqueous phase after CO2 treatment [9, 21]: 68%
- additive removed from the aqueous phase after N2 treatment [9]: 81%

SMILES: CC(C)(C)NCCO [N-tert-butylethanolamine]
- Additive retained in H2O [10]: 99.84 ± 0.04%
- THF forced out [10]: 68.7 ± 0.4%
- time of argon bubbling until the two phases recombined ([10]; Ar 5 mL/min): 30 min

SMILES: CNC(C)(C)C [N-tert-butymethylamine]
- Additive retained in H2O [10]: 99.75 ± 0.04%
- THF forced out [10]: 67.6 ± 0.8%
- time of argon bubbling until the two phases recombined ([10]; higher Ar flow rate of 15 mL/min): 120 min

SMILES: [Cl-].[Na+] [NaCl]
- % Organic Salted Out [2]: 98 ± 0.5% and 93 ± 1.0%

SMILES: CCN(CC)CCCCN(CC)CC [TEDAB, N,N,N′,N′-tetraethyl-1,4-diaminobutane]
- THF removed from the aqueous phase after CO2 treatment [9, 21]: 77.2±3.5%
- additive residing in the aqueous phase after CO2 treatment [9, 21]: 91.1±3.7%
- overall total THF removed from the aqueous phase at the end of the procedure ([9]; after CO2 and N2 steps): 90.0±2.1%
- additive removed from the aqueous phase after N2 treatment [9]: 49.3±6.3%

SMILES: CN(C)CCCCN(C)C [TMDAB, N,N,N′,N′-tetramethyl-1,4-diaminobutane]
- TMDAB in the dried organic THF phase ([11]; start 1.3 mol % TMDAB): 0.3 mol %
- H2O in the dried organic THF phase ([11]; start 65.6 mol % THF, 33.1 mol % H2O, 1.3 mol % TMDAB): 20.5 mol %
- % Additive Retained [6]: 99.2 ± 0.4%
- % THF Separated [6]: 82 ± 0.6%
- settling behaviour of kaolinite clay ([12]; 1 mM TMDAB treated 1 hour with CO2): settling of clay with a clean supernatant and a clear sediment line
- settling behaviour of kaolinite clay ([12]; 1 mM TMDAB, 1 hour CO2 followed by 1 hour N2): stable suspension
- settling behaviour of kaolinite clay ([12]; 5 g clay in 100 mL 1 mM TMDAB, no CO2): stable suspension
- % Aldehyde Selectivity ([13]; Cycle 1): 87.7%
- % Conversion ([13]; Cycle 1): 85.2%
- B/L ([13]; Cycle 1): 7.7
- % Aldehyde Selectivity ([13]; Cycle 2): 87.3%
- % Conversion ([13]; Cycle 2): 43.8%
- B/L ([13]; Cycle 2): 5.4
- % Aldehyde Selectivity ([13]; Cycle 3): 85.2%
- % Conversion ([13]; Cycle 3): 8.9%
- B/L ([13]; Cycle 3): 4.6
- % Additive Retained ([7]; THF:H2O:Additive 3:3:1 w/w/w): 87.1 ± 2.1%
- % THF Separated ([7]; THF:H2O:Additive 3:3:1 w/w/w): 87 ± 1.3%
- % Additive Retained ([7]; THF:H2O:Additive 5:5:1 w/w/w): 99.6% and 99.6 ± 0.1%
- % THF Separated ([7]; THF:H2O:Additive 5:5:1 w/w/w): 87% and 87 ± 0.6%
- % Additive Retained ([7]; THF:H2O:Additive 10:10:1 w/w/w): 99.4 ± 0.1%
- % THF Separated ([7]; THF:H2O:Additive 10:10:1 w/w/w): 80 ± 0.5%
- % Additive Retained ([7]; THF:H2O:Additive 15:15:1 w/w/w): 98.4 ± 0.4%
- % THF Separated ([7]; THF:H2O:Additive 15:15:1 w/w/w): 74% and 74 ± 0.9%

SMILES: NCCO [ethanolamine]
- phase separation on bubbling CO2 ([1]; 3:3:1 v/v/v H2O:amine:DMSO, CO2 120 minutes): did not separate into two phases
- time of CO2 bubbling until solution separated into two phases [1]: 30 min
- phase recombination on bubbling N2 [1]: did not recombine into one miscible layer
- time of CO2 bubbling until two liquid phases were observed ([14]; 5:5:1 H2O:THF:amine): 20 min
- THF forced out of the aqueous phase ([14]; 5:5:1 H2O:THF:amine, CO2 20 minutes): ~62%
- phase recombination on bubbling N2 [14]: the two phases did not recombine

SMILES: NCCN [ethylenediamine]
- time of CO2 bubbling until two liquid phases were observed ([14]; 18:18:1 H2O:THF:amine): 10 min
- THF forced out of the aqueous phase ([14]; 18:18:1 H2O:THF:amine, CO2 10 minutes): ~67%
- phase recombination on bubbling N2 [14]: the two phases did not recombine

Where “and” joins values, the source holds several entries; their conditions need not be identical. Equal values may be shown once. Read-outs that look alike come from different tables or passages of the source.
